Measurements reported in PubChem BioAssay AID1159584 (Peter MacCallum Cancer Centre, 2016)
The deposit covers about 18,000 reagents; this is a part drawn at random. The numbers tell different reagents against one gene apart. Not given: the amount of reagent, the time to read-out.

Aim: 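Knock-downs that harm CDH1-null cells more than parental MCF10A cells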 (primary screen)
System: human MCF10A breast epithelial cells, parental and CDH1-null
Reagents: siRNA against human genes
Measurement: 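Cell viability by CellTiter-Glo ATP luminescence, each line scaled to the mean of mock wells across plates, then CDH1-null over parental ratio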
Reading the numbers: CDH1-null / parental viability ratio: higher = CDH1-null cells survive relatively better than parental; CDH1-null viability vs mock: higher = more viable CDH1-null cells; parental viability vs mock: higher = more viable parental cells

Target gene | siRNA no. | CDH1-null / parental viability ratio | CDH1-null viability vs mock (fraction of mock) | parental viability vs mock (fraction of mock)
MTCL1 (GeneID 23255) | 1 | 0.85 | 0.74 | 0.87
ARRDC3 (GeneID 57561) | 1 | 0.95 | 0.9 | 0.95
ZBTB49 (GeneID 166793) | 1 | 1.06 | 0.72 | 0.68
ACTN1 (GeneID 87) | 1 | 1.22 | 0.9 | 0.74
NAGS (GeneID 162417) | 1 | 1.26 | 1.21 | 0.96
SREBF1 (GeneID 6720) | 1 | 1.05 | 0.92 | 0.88
DSCR9 (GeneID 257203) | 1 | 1.17 | 0.69 | 0.59
RPL7 (GeneID 6129) | 1 | 1.12 | 0.38 | 0.34
SLC10A5 (GeneID 347051) | 1 | 0.88 | 0.72 | 0.82
UBE2H (GeneID 7328) | 1 | 1.04 | 0.71 | 0.68
MOB1A (GeneID 55233) | 1 | 0.84 | 0.72 | 0.86
CACNA1I (GeneID 8911) | 1 | 1.19 | 1.12 | 0.94
TFEC (GeneID 22797) | 1 | 0.92 | 0.92 | 1
SPARCL1 (GeneID 8404) | 1 | 1.38 | 0.8 | 0.58
CCDC8 (GeneID 83987) | 1 | 0.97 | 0.34 | 0.35
CAPN6 (GeneID 827) | 1 | 0.95 | 0.78 | 0.82
LINC00471 (GeneID 151477) | 1 | 0.87 | 0.66 | 0.76
PRKCA (GeneID 5578) | 1 | 0.67 | 0.64 | 0.95
ZNF100 (GeneID 163227) | 1 | 1.55 | 0.93 | 0.6
CYYR1 (GeneID 116159) | 1 | 0.9 | 0.85 | 0.94
NKAIN2 (GeneID 154215) | 1 | 1.17 | 1.08 | 0.92
CDX4 (GeneID 1046) | 1 | 1.13 | 1.07 | 0.95
DNPEP (GeneID 23549) | 1 | 1.53 | 0.72 | 0.47
SNTN (GeneID 132203) | 1 | 1.01 | 0.87 | 0.86
OR6C6 (GeneID 283365) | 1 | 0.85 | 0.82 | 0.96
PTS (GeneID 5805) | 1 | 0.9 | 0.92 | 1.02
ZNF221 (GeneID 7638) | 1 | 1.18 | 1.09 | 0.92
CCDC172 (GeneID 374355) | 1 | 1.1 | 0.97 | 0.88
NANS (GeneID 54187) | 1 | 0.88 | 0.3 | 0.34
NHLRC3 (GeneID 387921) | 1 | 1.04 | 0.84 | 0.81
ADCY6 (GeneID 112) | 1 | 0.9 | 0.9 | 1
MPO (GeneID 4353) | 1 | 0.79 | 0.68 | 0.86
LRRC55 (GeneID 219527) | 1 | 0.83 | 0.72 | 0.87
FUZ (GeneID 80199) | 1 | 0.99 | 0.77 | 0.78
ARMCX3 (GeneID 51566) | 1 | 0.94 | 0.9 | 0.96
HCN4 (GeneID 10021) | 1 | 1.12 | 0.84 | 0.75
DGCR6L (GeneID 85359) | 1 | 1.22 | 0.66 | 0.54
B3GALT1 (GeneID 8708) | 1 | 1.04 | 0.87 | 0.84
RAB26 (GeneID 25837) | 1 | 0.77 | 0.48 | 0.62
KRT72 (GeneID 140807) | 1 | 0.98 | 0.78 | 0.8
ALDH7A1 (GeneID 501) | 1 | 0.97 | 0.89 | 0.92
SCUBE2 (GeneID 57758) | 1 | 1.38 | 1.16 | 0.84
DMRTC1B (GeneID 728656) | 1 | 0.77 | 0.51 | 0.66
SLC25A20 (GeneID 788) | 1 | 0.88 | 0.84 | 0.96
CSF1R (GeneID 1436) | 1 | 1.7 | 1.09 | 0.64
INTS6L (GeneID 203522) | 1 | 1.3 | 0.56 | 0.43
SYNPO2L (GeneID 79933) | 1 | 0.82 | 0.59 | 0.72
SFTPA1 (GeneID 653509) | 1 | 1.17 | 0.42 | 0.36
SFTPA1 (GeneID 653509) | 2 | 1.01 | 0.92 | 0.91
SLC4A5 (GeneID 57835) | 1 | 1.07 | 0.9 | 0.84
APBB1 (GeneID 322) | 1 | 1.36 | 0.76 | 0.56
FTSJ1 (GeneID 24140) | 1 | 1.06 | 0.74 | 0.7
RGS8 (GeneID 85397) | 1 | 0.95 | 0.76 | 0.8
DHX32 (GeneID 55760) | 1 | 1.44 | 0.91 | 0.63
DPP7 (GeneID 29952) | 1 | 1.18 | 0.84 | 0.71
DACT3 (GeneID 147906) | 1 | 1.06 | 0.57 | 0.54
UBA1 (GeneID 7317) | 1 | 1.15 | 0.78 | 0.68
CFAP36 (GeneID 112942) | 1 | 1.1 | 0.57 | 0.52
OR5AP2 (GeneID 338675) | 1 | 0.68 | 0.48 | 0.71
LRP11 (GeneID 84918) | 1 | 0.84 | 0.64 | 0.76
HYAL1 (GeneID 3373) | 1 | 0.85 | 0.57 | 0.67
DSG1 (GeneID 1828) | 1 | 1.02 | 0.86 | 0.84
LILRB5 (GeneID 10990) | 1 | 1.32 | 1.04 | 0.79
MESP1 (GeneID 55897) | 1 | 0.72 | 0.58 | 0.8
RPP40 (GeneID 10799) | 1 | 1.29 | 0.54 | 0.42
KLF10 (GeneID 7071) | 1 | 1.08 | 1.08 | 1
USP33 (GeneID 23032) | 1 | 1.39 | 0.86 | 0.62
SPATA18 (GeneID 132671) | 1 | 0.86 | 0.76 | 0.88
